Cell number after 72 h of treatment

Data from the primary screen of doi:10.1371/journal.pone.0140310, rounded.

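The test systems are human melanoma cell lines, treated with two drugs together for 72 h and then stained and imaged. Each value is the count of nuclei relative to DMSO-treated wells, in %, so that 100 equals the control. Concentrations were fixed for each drug; these are the higher of two levels. No replicate spread is given; individual values may be noisy.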 An unselected part of the screen is shown.

Drugs:
lestaurtinib: C[C@]12O[C@H](C[C@]1(O)CO)n1c3ccccc3c3c4c(c5c6ccccc6n2c5c31)CNC4=O at 0.02 µM
NVP-BEZ235: Cn1c(=O)n(-c2ccc(C(C)(C)C#N)cc2)c2c3cc(-c4cnc5ccccc5c4)ccc3ncc21 at 0.02 µM
veliparib: C[C@]1(c2nc3c(C(N)=O)cccc3[nH]2)CCCN1 at 7 µM
cisplatin: N.N.[Cl][Pt][Cl] at 8 µM
vorinostat: O=C(CCCCCCC(=O)Nc1ccccc1)NO at 0.4 µM
XAV939: Oc1nc(-c2ccc(C(F)(F)F)cc2)nc2c1CSCC2 at 10 µM
bortezomib: CC(C)C[C@H](NC(=O)[C@H](Cc1ccccc1)NC(=O)c1cnccn1)B(O)O at 0.005 µM
GW9662: O=C(Nc1ccccc1)c1cc([N+](=O)[O-])ccc1Cl at 10 µM
lapatinib: CS(=O)(=O)CCNCc1ccc(-c2ccc3ncnc(Nc4ccc(OCc5cccc(F)c5)c(Cl)c4)c3c2)o1 at 4 µM
PF-04217903: OCCn1cc(-c2cnc3nnn(Cc4ccc5ncccc5c4)c3n2)cn1 at 5 µM
JZL184: O=C(Oc1ccc([N+](=O)[O-])cc1)N1CCC(C(O)(c2ccc3c(c2)OCO3)c2ccc3c(c2)OCO3)CC1 at 5 µM
OSI-906: C[C@]1(O)C[C@@H](c2nc(-c3ccc4ccc(-c5ccccc5)nc4c3)c3c(N)nccn32)C1 at 2 µM

| # | Pair | WM451Lu | COLO 800 | COLO 792 | WM3619 | COLO 829 | C32 |
|---|---|---|---|---|---|---|---|
| 1 | vorinostat and lapatinib | 64.9 | 49.3 | 58.6 | 57.9 | 72.4 | 93.4 |
| 2 | cisplatin and XAV939 | 88.9 | 80.2 | 81.8 | 70.5 | 76.8 | 93.7 |
| 3 | GW9662 and lapatinib | 84.4 | 38.4 | 76.7 | 55.1 | 48.4 | 83.6 |
| 4 | OSI-906 and XAV939 | 114 | 63.0 | 94.9 | 86.9 | 106 | 114 |
| 5 | veliparib and OSI-906 | 103 | 33.1 | 128 | 83.8 | 98.0 | 113 |
| 6 | veliparib and lestaurtinib | 75.2 | 58.4 | 71.0 | 93.4 | 95.3 | 94.6 |
| 7 | lapatinib and PF-04217903 | 94.2 | 45.9 | 66.6 | 76.7 | 99.0 | 91.5 |
| 8 | veliparib and lapatinib | 101 | 57.4 | 67.4 | 63.8 | 78.4 | 105 |
| 9 | bortezomib and XAV939 | 51.8 | 95.5 | 84.3 | 77.4 | 121 | 81.7 |
| 10 | OSI-906 and lestaurtinib | 79.5 | 64.1 | 56.9 | 71.4 | 73.6 | 93.5 |
| 11 | XAV939 and lapatinib | 99.5 | 69.6 | 81.8 | 75.8 | 93.5 | 104 |
| 12 | XAV939 and lestaurtinib | 89.1 | 75.9 | 71.9 | 89.5 | 91.1 | 87.5 |
| 13 | NVP-BEZ235 and lestaurtinib | 67.7 | 62.0 | 27.8 | 65.7 | 82.2 | 113 |
| 14 | XAV939 and GW9662 | 94.3 | 89.3 | 83.5 | 53.7 | 70.7 | 112 |
| 15 | XAV939 and NVP-BEZ235 | 98.8 | 76.5 | 51.6 | 58.6 | 90.7 | 94.6 |
| 16 | cisplatin and GW9662 | 85.9 | 59.1 | 103 | 55.6 | 64.7 | 102 |
| 17 | JZL184 and XAV939 | 97.1 | 68.9 | 90.7 | 85.0 | 107 | 99.8 |
| 18 | vorinostat and bortezomib | 20.6 | 43.7 | 18.4 | 3.5 | 7.7 | 28.3 |
| 19 | JZL184 and vorinostat | 76.0 | 67.4 | 71.6 | 77.9 | 89.2 | 92.7 |
| 20 | PF-04217903 and GW9662 | 86.0 | 61.3 | 102 | 82.0 | 73.1 | 83.5 |
| 21 | GW9662 and OSI-906 | 75.0 | 62.7 | 96.4 | 54.9 | 73.3 | 91.6 |
| 22 | NVP-BEZ235 and GW9662 | 83.5 | 105 | 76.0 | 60.1 | 55.1 | 86.3 |
| 23 | OSI-906 and vorinostat | 62.1 | 26.7 | 93.9 | 54.0 | 98.9 | 97.5 |
| 24 | OSI-906 and bortezomib | 20.2 | 52.7 | 33.1 | 2.1 | 7.5 | 34.4 |
| 25 | vorinostat and NVP-BEZ235 | 83.1 | 119 | 69.5 | 58.5 | 85.9 | 109 |
| 26 | JZL184 and PF-04217903 | 110 | 59.9 | 102 | 115 | 124 | 105 |
| 27 | GW9662 and JZL184 | 89.1 | 56.8 | 97.3 | 44.6 | 80.9 | 110 |
| 28 | OSI-906 and cisplatin | 92.3 | 72.9 | 109 | 94.1 | 115 | 91.2 |
| 29 | vorinostat and cisplatin | 50.1 | 58.5 | 60.5 | 63.1 | 64.8 | 94.0 |
| 30 | bortezomib and PF-04217903 | 24.8 | 35.4 | 25.7 | 8.4 | 22.4 | 16.6 |
| 31 | PF-04217903 and cisplatin | 107 | 112 | 85.8 | 64.7 | 86.9 | 95.0 |